Test results reported in patent publication US20050186197A1 (published 2005).
For some assays here: HELM strings list residues between dots; [ac] is acetyl, [am] amide, other brackets name non-standard units. No end group written: not given here.

Key:
[1] = general procedure: Fmoc solid-phase peptide synthesis; conditions: whole synthesis, reverse phase HPLC
[2] = peptide made by a vendor (Fmoc solid-phase peptide synthesis); conditions: whole synthesis, reverse phase HPLC

Substance	final HPLC purity [1] [%]	final purity (method not given) [2] [%]
PEPTIDE1{H.S.A.C.S.D.T.R.R.G.D.C.G.[am]}$PEPTIDE1,PEPTIDE1,4:R3-12:R3$$$V2.0	>90	–
HSAYSDTRRGDYG-NH2	>95	–
RRGHYY—NH2	>95	–
LRRASLG-NH2	–	>99
AAGHYY-NH2	>95	–
